# Results deposited as PubChem BioAssay AID1259405 (NCATS, 2018).
# Test: 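Silenced genes that increase secreted GFP made by CHO cells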 (primary screen)
# System: Chinese hamster CHO-K1 ovary cells with stable secreted eGFP expression
# Reagents: single siRNA against mouse genes, 0.8 pmol siRNA per well (2 µl of 400 nM stock)
# Time to read-out: 3 days
# Measured: 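Percent of the per-plate non-targeting control median for intracellular GFP per well by laser scanning cytometry and for cell viability by ATP luminescence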
# Direction: GFP, % of control: higher = more GFP per well, higher productivity; viability (ATP), % of control: higher = more viable cells (more ATP)
# Rule for the call: 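Called active when intracellular GFP, relative to negative control, is at or above 120%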
# The whole screen tested about 50,000 reagents; this is an unselected part. About 4,000 of them (8%) count as active. 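Mouse siRNA library applied to hamster cells; one well for each siRNA.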 Entries without a mark were called inactive. Reagents against one gene are numbered here.
gene symbol,siRNA no.,"GFP, % of control","viability (ATP), % of control"
Lhfpl4,1,53.4,32.9
Lhfpl4,2,85.8,94.9
Lhfpl4,3,85.1,70.7
Emc10,1,66.9,65.8
Emc10,2,45.3,45.7
Emc10,3,98.7,84.4
Golim4,1,72.1,77.1
Golim4,2,61.9,66.2
Golim4,3,90,81.9
Fbxw2,1,48.5,69.2
Fbxw2,2,118,69.3
Fbxw2,3,64,83.2
Mapre2,1,66.3,73.7
Mapre2,2,107,73.1
Mapre2,3,86.5,44.9
Atp6ap1,1,28.4,44.3
Atp6ap1,2,85.5,129
Atp6ap1,3,114,129
Dpp4,1,188 (active),75.8
Dpp4,2,48.3,43.6
Dpp4,3,70.8,74.1
Brap,1,33.8,54
Brap,2,118,84.1
Brap,3,110,106
Lima1,1,151 (active),72.3
Lima1,2,110,46.4
Poc1b,1,35.1,34.1
Poc1b,2,61.1,86.2
Poc1b,3,152 (active),140
Or2a54,1,64.5,60.6
Or2a54,2,71.9,89.1
Or2a54,3,26.9,69.4
5730596B20Rik,1,91.1,110
5730596B20Rik,2,86.5,70.5
5730596B20Rik,3,93.8,84.1
